Measurements as given in paper PMC10394019.
No constants are given. Whether binding was seen depends on the method and setting. In cells and extracts the contact can be indirect. Some entries that bind do so weakly or less than the wild type. Values belong to the binder of their own block, whether it stands above or below them.

By UniProt entry, the sequences of proteins in these tests, tags left out.
UniProt Q9WTX6: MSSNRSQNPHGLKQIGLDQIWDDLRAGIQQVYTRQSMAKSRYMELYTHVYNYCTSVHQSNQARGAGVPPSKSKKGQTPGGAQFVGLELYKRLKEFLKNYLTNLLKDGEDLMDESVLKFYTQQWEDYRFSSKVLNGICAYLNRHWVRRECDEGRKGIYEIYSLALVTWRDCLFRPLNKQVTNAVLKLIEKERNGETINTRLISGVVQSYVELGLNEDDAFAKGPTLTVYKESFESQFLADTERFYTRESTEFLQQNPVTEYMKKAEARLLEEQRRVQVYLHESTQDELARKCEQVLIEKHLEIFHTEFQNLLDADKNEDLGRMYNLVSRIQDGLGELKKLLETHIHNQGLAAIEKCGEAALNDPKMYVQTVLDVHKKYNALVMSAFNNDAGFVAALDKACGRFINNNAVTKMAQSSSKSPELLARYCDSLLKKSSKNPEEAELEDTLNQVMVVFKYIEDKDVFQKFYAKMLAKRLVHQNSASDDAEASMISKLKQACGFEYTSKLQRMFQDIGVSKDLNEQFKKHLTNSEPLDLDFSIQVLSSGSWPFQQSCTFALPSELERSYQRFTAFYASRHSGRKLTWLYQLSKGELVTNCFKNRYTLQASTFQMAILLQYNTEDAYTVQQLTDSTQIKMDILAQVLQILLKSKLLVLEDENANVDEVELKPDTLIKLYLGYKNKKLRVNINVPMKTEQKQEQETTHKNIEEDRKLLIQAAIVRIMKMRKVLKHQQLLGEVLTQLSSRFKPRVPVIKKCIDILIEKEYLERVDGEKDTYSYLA
UniProt Q13616: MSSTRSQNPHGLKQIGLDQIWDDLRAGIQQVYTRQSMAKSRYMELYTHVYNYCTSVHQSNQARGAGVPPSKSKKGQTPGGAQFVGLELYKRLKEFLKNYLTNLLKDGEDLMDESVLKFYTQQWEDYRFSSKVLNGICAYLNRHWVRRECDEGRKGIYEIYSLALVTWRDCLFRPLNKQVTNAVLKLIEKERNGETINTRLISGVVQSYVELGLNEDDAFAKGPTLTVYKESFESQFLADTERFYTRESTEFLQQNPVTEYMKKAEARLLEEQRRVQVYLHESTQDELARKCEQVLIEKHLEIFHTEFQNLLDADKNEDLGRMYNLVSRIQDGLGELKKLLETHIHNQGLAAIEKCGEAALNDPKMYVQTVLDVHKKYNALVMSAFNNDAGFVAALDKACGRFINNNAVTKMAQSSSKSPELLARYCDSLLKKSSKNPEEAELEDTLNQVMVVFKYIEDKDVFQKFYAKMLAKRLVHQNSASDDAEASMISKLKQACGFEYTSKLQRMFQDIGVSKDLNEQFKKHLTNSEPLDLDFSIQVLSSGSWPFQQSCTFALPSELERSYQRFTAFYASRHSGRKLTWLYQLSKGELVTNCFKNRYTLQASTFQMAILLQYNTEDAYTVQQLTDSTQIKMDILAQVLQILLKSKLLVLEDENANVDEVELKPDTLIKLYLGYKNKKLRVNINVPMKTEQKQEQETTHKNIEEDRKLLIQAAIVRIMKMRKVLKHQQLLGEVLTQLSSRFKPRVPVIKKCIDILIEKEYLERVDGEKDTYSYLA

Columns and labels:
[1] = biological target: Cullin1 (mouse (endogenous in AML12 and mouse liver)) (UniProt Q9WTX6); test: co-IP; lysates of AML12 or THLE-2 cells, NC or siCAND1, after PA treatment; immunoprecipitated with anti-Cullin1 antibody, immunoblotted for FBXO42 and ACAA2
[2] = biological target: Cullin1 (mouse (endogenous in AML12 and mouse liver)) (UniProt Q9WTX6); test: co-IP; liver lysates of WT, CAND1 cKO and CAND1 cKI mice after 16 weeks of NC or HFD feeding; immunoprecipitated with anti-ACAA2/Cullin1/FBXO42 antibodies and beads at 4 °C overnight, washed three times with lysis buffer, immunoblotted for ACAA2/FBXO42/Cullin1
[3] = biological target: T1, F-box only protein 42 (FBXO42) (mouse (endogenous in AML12 and mouse liver)) (UniProt Q6PDJ6); test: as above
T1 sequence: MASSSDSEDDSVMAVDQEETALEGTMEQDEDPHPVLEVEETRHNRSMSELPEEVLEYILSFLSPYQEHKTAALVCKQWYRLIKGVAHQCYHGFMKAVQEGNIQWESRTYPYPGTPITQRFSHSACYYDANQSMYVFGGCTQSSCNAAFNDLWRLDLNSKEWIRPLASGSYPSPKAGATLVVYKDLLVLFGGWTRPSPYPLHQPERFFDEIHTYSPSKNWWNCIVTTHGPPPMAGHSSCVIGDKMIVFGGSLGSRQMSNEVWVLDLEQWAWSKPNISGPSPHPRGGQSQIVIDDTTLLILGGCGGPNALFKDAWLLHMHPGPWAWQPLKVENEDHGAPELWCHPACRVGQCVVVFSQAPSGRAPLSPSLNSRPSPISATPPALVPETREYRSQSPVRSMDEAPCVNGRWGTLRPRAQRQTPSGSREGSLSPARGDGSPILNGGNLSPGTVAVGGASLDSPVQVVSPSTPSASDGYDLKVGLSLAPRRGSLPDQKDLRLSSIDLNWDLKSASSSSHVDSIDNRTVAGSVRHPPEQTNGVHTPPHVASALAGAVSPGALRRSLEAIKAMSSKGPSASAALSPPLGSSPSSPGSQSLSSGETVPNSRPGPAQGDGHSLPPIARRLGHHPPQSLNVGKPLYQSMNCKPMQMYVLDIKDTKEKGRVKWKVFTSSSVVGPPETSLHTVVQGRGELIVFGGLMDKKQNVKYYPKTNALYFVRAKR

[4] = biological target: Cullin1 (human (endogenous in L02 and THLE-2)) (UniProt Q13616); test: co-IP; lysates of AML12 or THLE-2 cells, NC or siCAND1, after PA treatment; immunoprecipitated with anti-Cullin1 antibody, immunoblotted for FBXO42 and ACAA2

binding [1]: binds
binding [2]: binds
binding [3]: binds
B1: acetyl-CoA acyltransferase 2 (ACAA2) (enzyme, UniProt Q8BWT1 1-397)
chain: MALLRGVFIVAAKRTPFGAYGGLLKDFSATDLTEFAARAALSAGKVPPETIDSVIVGNVMQSSSDAAYLARHVGLRVGVPTETGALTLNRLCGSGFQSIVSGCQEICSKDAEVVLCGGTESMSQSPYCVRNVRFGTKFGLDLKLEDTLWAGLTDQHVKLPMGMTAENLAAKYNISREDCDRYALQSQQRWKAANEAGYFNEEMAPIEVKTKKGKQTMQVDEHARPQTTLEQLQKLPSVFKKDGTVTAGNASGVSDGAGAVIIASEDAVKKHNFTPLARVVGYFVSGCDPTIMGIGPVPAINGALKKAGLSLKDMDLIDVNEAFAPQFLSVQKALDLDPSKTNVSGGAIALGHPLGGSGSRITAHLVHELRRRGGKYAVGSACIGGGQGIALIIQNTA

binding [4]: binds
B2: acetyl-CoA acyltransferase 2 (ACAA2) (enzyme, UniProt P42765 1-397)
chain: MALLRGVFVVAAKRTPFGAYGGLLKDFTATDLSEFAAKAALSAGKVSPETVDSVIMGNVLQSSSDAIYLARHVGLRVGIPKETPALTINRLCGSGFQSIVNGCQEICVKEAEVVLCGGTESMSQAPYCVRNVRFGTKLGSDIKLEDSLWVSLTDQHVQLPMAMTAENLAVKHKISREECDKYALQSQQRWKAANDAGYFNDEMAPIEVKTKKGKQTMQVDEHARPQTTLEQLQKLPPVFKKDGTVTAGNASGVADGAGAVIIASEDAVKKHNFTPLARIVGYFVSGCDPSIMGIGPVPAISGALKKAGLSLKDMDLVEVNEAFAPQYLAVERSLDLDISKTNVNGGAIALGHPLGGSGSRITAHLVHELRRRGGKYAVGSACIGGGQGIAVIIQSTA

binding [1]: binds
binding [4]: binds
binding [2]: binds
B3: F-box only protein 42 (FBXO42) (protein, UniProt Q6PDJ6 1-717)
chain: T1 sequence
